Assay results taken from article PMC10928159.
These are yes or no findings as the source states them, for the method shown. Binding seen in cells or lysates may run through a third protein. Some binding calls cover weakened binding; strength is not graded here.

By UniProt entry, the sequences of proteins in these tests, tags left out.
UniProt Q93009: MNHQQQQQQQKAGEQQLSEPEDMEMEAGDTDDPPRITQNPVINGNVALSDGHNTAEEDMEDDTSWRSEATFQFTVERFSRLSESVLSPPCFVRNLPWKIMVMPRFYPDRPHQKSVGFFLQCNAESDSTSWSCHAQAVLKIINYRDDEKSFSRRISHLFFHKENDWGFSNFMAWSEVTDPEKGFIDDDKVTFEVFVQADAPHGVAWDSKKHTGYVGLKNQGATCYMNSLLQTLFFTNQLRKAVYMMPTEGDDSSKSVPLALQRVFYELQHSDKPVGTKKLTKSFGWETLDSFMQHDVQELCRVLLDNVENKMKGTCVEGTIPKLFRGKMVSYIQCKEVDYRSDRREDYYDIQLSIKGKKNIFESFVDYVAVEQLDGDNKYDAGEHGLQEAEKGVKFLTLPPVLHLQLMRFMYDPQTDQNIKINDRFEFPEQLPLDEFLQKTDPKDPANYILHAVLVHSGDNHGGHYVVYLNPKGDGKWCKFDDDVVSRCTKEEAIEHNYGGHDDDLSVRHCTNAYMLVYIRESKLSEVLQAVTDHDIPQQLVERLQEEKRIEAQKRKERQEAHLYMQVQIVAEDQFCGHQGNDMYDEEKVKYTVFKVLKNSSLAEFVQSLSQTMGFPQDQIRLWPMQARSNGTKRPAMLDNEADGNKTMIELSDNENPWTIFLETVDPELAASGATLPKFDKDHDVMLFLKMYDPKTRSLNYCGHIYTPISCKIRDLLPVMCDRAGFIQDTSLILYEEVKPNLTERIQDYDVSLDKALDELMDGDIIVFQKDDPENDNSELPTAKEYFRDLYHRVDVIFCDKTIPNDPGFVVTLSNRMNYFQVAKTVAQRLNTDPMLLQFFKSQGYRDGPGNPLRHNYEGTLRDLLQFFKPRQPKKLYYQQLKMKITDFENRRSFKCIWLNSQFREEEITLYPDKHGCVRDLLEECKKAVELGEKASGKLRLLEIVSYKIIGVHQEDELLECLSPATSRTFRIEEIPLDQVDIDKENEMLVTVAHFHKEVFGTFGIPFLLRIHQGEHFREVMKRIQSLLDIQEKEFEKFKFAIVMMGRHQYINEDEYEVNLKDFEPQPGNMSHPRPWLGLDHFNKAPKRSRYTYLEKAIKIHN
UniProt Q96P20: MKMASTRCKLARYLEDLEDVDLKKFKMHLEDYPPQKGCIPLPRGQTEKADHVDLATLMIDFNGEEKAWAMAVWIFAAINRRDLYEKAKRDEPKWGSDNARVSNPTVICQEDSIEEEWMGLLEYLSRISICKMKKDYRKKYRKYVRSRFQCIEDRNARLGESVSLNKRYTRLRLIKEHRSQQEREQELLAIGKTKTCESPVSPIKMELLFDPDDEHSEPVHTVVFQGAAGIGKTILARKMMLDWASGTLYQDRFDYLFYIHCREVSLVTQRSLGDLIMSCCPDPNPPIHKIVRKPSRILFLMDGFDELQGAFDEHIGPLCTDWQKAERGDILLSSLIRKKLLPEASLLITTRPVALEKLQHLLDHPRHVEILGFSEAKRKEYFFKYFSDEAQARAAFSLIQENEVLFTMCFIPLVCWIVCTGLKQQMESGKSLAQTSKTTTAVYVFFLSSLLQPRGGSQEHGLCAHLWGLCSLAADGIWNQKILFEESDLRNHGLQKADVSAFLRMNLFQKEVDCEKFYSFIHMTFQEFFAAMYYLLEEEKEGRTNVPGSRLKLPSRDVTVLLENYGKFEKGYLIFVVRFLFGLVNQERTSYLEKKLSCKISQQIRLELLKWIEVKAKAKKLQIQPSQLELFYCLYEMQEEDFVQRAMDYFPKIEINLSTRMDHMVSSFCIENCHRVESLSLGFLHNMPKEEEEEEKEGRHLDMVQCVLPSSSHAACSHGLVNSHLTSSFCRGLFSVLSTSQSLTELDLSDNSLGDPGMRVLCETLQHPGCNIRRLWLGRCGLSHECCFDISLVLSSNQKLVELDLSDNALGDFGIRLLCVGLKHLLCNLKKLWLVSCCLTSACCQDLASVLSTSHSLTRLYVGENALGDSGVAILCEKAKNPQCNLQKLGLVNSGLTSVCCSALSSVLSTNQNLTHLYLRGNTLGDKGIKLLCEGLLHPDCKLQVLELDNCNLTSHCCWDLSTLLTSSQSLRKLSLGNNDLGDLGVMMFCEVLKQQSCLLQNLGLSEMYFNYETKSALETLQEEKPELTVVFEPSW

Target: Ubiquitin-specific protease 7 (human (endogenous in U2OS)) (UniProt Q93009)
Assay: co-IP; U2OS lysate (50 mM Tris-HCl pH 7.5, 150 mM NaCl, 5 mM EDTA) precipitated with anti-USP7 and protein A/G agarose, 4 °C; IgG as control; western blot for NLRP3

binding: binds
Substance: NLRP3 (from UniProt Q96P20 1-1036)
